Results are given in words; binding and its absence hold for the method and conditions named. Binding seen in cells or lysates may run through a third protein. A yes stands for co-enrichment or nearness to the bait. Other partners may have been found. Where a sequence is shown, tags or fusion partners need not be part of it.
Target: T1, GFP-USP13 (from pLenti-CMV-Flag-USP13-GFP-Puro) (UniProt Q92995)
T1 sequence: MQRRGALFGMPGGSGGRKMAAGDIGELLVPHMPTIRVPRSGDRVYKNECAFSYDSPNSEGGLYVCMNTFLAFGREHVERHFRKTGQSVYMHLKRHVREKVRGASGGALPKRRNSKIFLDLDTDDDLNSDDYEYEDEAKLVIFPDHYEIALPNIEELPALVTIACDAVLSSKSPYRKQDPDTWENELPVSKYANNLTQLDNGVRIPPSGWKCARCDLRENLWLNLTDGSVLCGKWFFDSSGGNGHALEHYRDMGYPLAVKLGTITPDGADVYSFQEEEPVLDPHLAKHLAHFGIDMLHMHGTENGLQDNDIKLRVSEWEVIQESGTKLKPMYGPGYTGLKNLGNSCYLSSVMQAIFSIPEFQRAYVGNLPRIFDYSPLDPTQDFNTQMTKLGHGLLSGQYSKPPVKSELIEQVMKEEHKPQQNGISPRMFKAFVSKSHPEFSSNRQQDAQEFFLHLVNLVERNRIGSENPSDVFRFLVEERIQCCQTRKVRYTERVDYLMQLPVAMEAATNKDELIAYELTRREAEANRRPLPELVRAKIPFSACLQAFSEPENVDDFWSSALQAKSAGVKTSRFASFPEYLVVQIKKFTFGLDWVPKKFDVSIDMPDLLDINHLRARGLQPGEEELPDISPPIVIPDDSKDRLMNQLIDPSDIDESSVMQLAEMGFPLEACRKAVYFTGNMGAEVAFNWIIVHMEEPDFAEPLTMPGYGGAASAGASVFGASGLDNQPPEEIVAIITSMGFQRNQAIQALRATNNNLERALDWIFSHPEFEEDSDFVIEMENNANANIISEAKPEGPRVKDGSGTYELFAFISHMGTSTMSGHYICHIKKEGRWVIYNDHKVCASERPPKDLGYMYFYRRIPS
Assay: affinity purification with mass spectrometry; HEK293T cells lysed 48 h after transfection; co-IP with USP13 pull-down; on-bead trypsin digestion; LC-MS/MS

Amino acid sequences for entries named in this document (tags omitted).
UniProt P07437: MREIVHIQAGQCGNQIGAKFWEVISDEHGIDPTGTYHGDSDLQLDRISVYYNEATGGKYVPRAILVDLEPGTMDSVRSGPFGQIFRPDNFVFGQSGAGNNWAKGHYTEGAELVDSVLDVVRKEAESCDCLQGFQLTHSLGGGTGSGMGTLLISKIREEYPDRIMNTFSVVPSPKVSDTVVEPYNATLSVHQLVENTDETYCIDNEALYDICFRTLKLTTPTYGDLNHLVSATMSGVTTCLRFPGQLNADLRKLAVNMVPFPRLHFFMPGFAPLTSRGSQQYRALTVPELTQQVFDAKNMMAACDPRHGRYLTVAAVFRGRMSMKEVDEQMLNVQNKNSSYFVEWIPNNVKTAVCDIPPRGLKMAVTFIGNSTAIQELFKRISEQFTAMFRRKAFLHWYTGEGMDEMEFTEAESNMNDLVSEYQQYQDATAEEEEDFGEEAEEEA

- binding: binds
Substance: TUBB (from UniProt P07437 1-444)

Source: paper PMC12663190
